# Among all 400,000 compounds or so, about 13,000 (3.2%) were called active. Inconclusive results, whose numbers are uncertain, are shown with a selection of clear calls. The call rests on the fitted dose curve; in most records, active means well fitted cell-killing curve with a large enough effect; inconclusive means small, poorly fitted or top-dose-only effect, or effect the other way; inactive means flat fitted curve, though single readings scatter. Potencies of inconclusive entries are doubtful fits and often do not repeat.
# Assay: qHTS assay for MDR1-selective chemotherapeutics: Primary screen using the drug-selected MDR subline cells KB-V1; further: nearly all actives have a fitted effect of over 60% in size
# Settings: KB-V1 MDR cells viability, CellTiter-Glo, 72 h; series mostly up to 46.1 µM
# Outline: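 Cytotoxicity toward P-gp-expressing KB-V1 cells was determined as loss of CellTiter-Glo luminescence after 72 h at 37 degrees C. Compounds were tested in quantitative HTS format across a concentration range, with curves fitted to normalized data.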
# Potency means the concentration at half of the fitted maximal effect.
row,Structure (SMILES),Potency
1,COc1ccccc1NS(=O)(=O)c1cccc(NC(=O)Cc2cccs2)c1,"inconclusive: 13 µM [cytotoxic, partial curve]"
2,CN1CCC(N(C)C(=O)COc2ccc(S(=O)(=O)N3CCOCC3)cc2)CC1,"inconclusive: 1.16 µM [rising, full curve, poor fit]"
3,CCCCN1CC[C@H]2C=CC[C@@H](C(=O)Nc3ccc(Cl)cc3Cl)[C@H]2C1=O,"inconclusive: 16.4 µM [cytotoxic, partial curve]"
4,Nc1nnc2cc(Cl)ccc2n1,inactive
5,O=C(COc1ccc(Cl)cc1)NNC(=S)NCc1ccccc1,"inconclusive: 29.1 µM [cytotoxic, single point]"
6,CCc1sc(C(=O)Nc2ncccc2C)cc1C,inactive
7,Cc1ccc(OCC(=O)Nc2ccc3[nH]c(=O)sc3c2)cc1,inactive
8,CC(C)(C)n1nnnc1C(c1cccnc1)N1CCN(c2cccc(C(F)(F)F)c2)CC1 (centres undefined),"inconclusive: 3.26 µM [cytotoxic, partial curve]"
9,Cc1ccccc1-c1cccc([C@@H]2C[C@H]3[C@H](CON3C)CN2S(=O)(=O)c2ccccc2C)c1,inactive
10,COc1ccc(CNC(=O)CCn2c(=O)oc3ccccc32)cc1,inactive
11,COc1ccc(N2CCN(C(=O)c3cc4c(s3)CCCCC4)CC2)cc1,inactive
12,O=C1c2ccccc2-c2onc3ccc(NCc4ccco4)c1c23,active: 10.3 µM
13,CCOc1ncccc1C(=O)Nc1cc(S(=O)(=O)N2CCCCC2)ccc1C,inactive
14,Cc1cc(C)cc(NC(=O)C(=O)NCC(c2cccnc2)N2CCN(c3ccccc3)CC2)c1 (centres undefined),inactive
15,O=C(CNC1CCCC1)Nc1ccc(N2CCCCCC2)cc1,"inconclusive: 16.4 µM [cytotoxic, partial curve, poor fit]"
16,COc1ccc(C)cc1NC(=O)COC(=O)c1c(-c2ccccc2)noc1C,"inconclusive: 23.1 µM [cytotoxic, single point]"
17,CCCCc1nc2ccccc2c(NC(=O)CN(CC)CC)c1CCC,"inconclusive: 23.1 µM [cytotoxic, single point]"
18,Cc1cc(OCc2cc(C(=O)N3CCC(Oc4cccnc4)CC3)no2)cc(C)c1Cl,"inconclusive: 8.2 µM [cytotoxic, partial curve]"
19,CC(=O)N(c1cccc(Cl)c1)c1nc(C)cc(C)c1C#N,inactive
20,Cc1ccc(N2C(=O)c3ccc(C(=O)O)cc3C2=O)c(C)c1,"inconclusive: 29.1 µM [rising, single point]"
21,CC(Nc1nc(N2CCN(CCO)CC2)nc2ccccc12)c1ccccc1 (centres undefined),"inconclusive: 32.6 µM [cytotoxic, single point]"
22,CC(=O)Nc1ccc(NC(=O)CSc2ccc(-c3cccs3)nn2)cc1,"inconclusive: 14.6 µM [rising, partial curve, poor fit]"

# A draw from above in order of count of non-hydrogen atoms, largest number first.
row,Structure (SMILES),Potency
21,CC(Nc1nc(N2CCN(CCO)CC2)nc2ccccc12)c1ccccc1 (centres undefined),"inconclusive: 32.6 µM [cytotoxic, single point]"
15,O=C(CNC1CCCC1)Nc1ccc(N2CCCCCC2)cc1,"inconclusive: 16.4 µM [cytotoxic, partial curve, poor fit]"
7,Cc1ccc(OCC(=O)Nc2ccc3[nH]c(=O)sc3c2)cc1,inactive

# Additional records follow:

row,Structure (SMILES),Potency
1,CN1CCN(C(=O)CCCN2C(=O)/C(=C/c3cccc(Br)c3)SC2=S)CC1,"inconclusive: 16.4 µM [cytotoxic, single point]"
2,CCOc1ccccc1N1CC(O)=C(c2nc3ccccc3s2)C1=N,"inconclusive: 1.3 µM [cytotoxic, full curve, poor fit]"
3,CN(c1ccccc1)c1nc(C#N)nc(N2CCOCC2)n1,"inconclusive: 29.1 µM [rising, single point]"
4,CCOC(=O)C1=NNC2(c3ccc(C)cc3)C(=O)N(c3ccc(Cl)cc3)C(=O)C12 (centres undefined),"inconclusive: 6.51 µM [rising, full curve, poor fit]"
5,Cc1nn(-c2ccccc2)c2c1N(CCCC(=O)NCc1ccccc1)C(=O)CS2,active: 16.4 µM
6,CN(CC(=O)Nc1cccc(F)c1)C(=O)c1ccc(-c2cccc(C(F)(F)F)c2)o1,"inconclusive: 23.1 µM [cytotoxic, single point]"
7,C=CCn1c(SCC(=O)C(C)(C)C)nnc1-c1cccs1,"inconclusive: 20.6 µM [cytotoxic, single point]"
8,O=C1CN(C(=O)Nc2ccccc2Cl)C(c2ccccc2)c2c(sc3c2CCCC3)N1 (centres undefined),"inconclusive: 29.1 µM [cytotoxic, single point]"
9,CCCc1ccc(S(=O)(=O)N2CCN(C(C)C(=O)NCc3ccccc3)CC2)cc1 (centres undefined),"inconclusive: 18.4 µM [cytotoxic, single point]"
10,Cc1c(Cl)cccc1NC(=S)NCCc1ccccn1,"inconclusive: 18.4 µM [cytotoxic, single point]"
11,CCCOc1ccc(N2CC(C(=O)Nc3ccccc3OC)CC2=O)cc1 (centres undefined),"inconclusive: 29.1 µM [rising, single point]"
12,O=C(NCc1ccccn1)c1cccc(NS(=O)(=O)c2ccc(Br)cc2)c1,inactive
13,COc1ccc(C2CC(c3ccccc3)=NN2C(=O)c2ccc(F)cc2)cc1 (centres undefined),inactive
14,COc1ccc(C2/C(=C(\O)c3cccc(OC)c3)C(=O)C(=O)N2c2ccccn2)cc1 (centres undefined),"inconclusive: 20.6 µM [cytotoxic, single point]"
15,CCCS(=O)(=O)c1c(S(=O)(=O)CCC)c2ccc(C(N)=O)cn2c1C(=O)c1ccccc1,"inconclusive: 23.1 µM [rising, partial curve, poor fit]"
16,COc1ccc(N2CC(C)Cn3c2nc2c3c(=O)n(Cc3ccc(F)cc3)c(=O)n2C)c(OC)c1 (centres undefined),"inconclusive: 23.1 µM [cytotoxic, partial curve, poor fit]"
17,CC1=C(C(=O)Nc2cccc(C(=O)NCc3ccc(F)cc3)c2)SCCO1,"inconclusive: 29.1 µM [cytotoxic, single point]"
18,COc1ccccc1NC(=O)CCn1cnc2onc(-c3ccc(F)cc3)c2c1=O,"inconclusive: 25.9 µM [cytotoxic, single point]"
19,COc1ccc(-c2nc3ccc(C)cn3c2CC(C)(C)C)cc1OC,inactive
20,COc1ccc(CCNC(=O)CC2SC(=NCc3ccccc3OC)NC2=O)cc1 (centres undefined),inactive
21,CC1(C)CCC(c2ccc(Cl)cc2)=C(CN2CCN(c3ccc(C(=O)NS(=O)(=O)c4ccc(N[C@H](CCN5CCOCC5)CSc5ccccc5)c(S(=O)(=O)C(F)(F)F)c4)cc3)CC2)C1,inactive
22,Cc1ccc(S(=O)(=O)N2CC(C)C(=O)CC2C)cc1 (centres undefined),inactive

# Source: PubChem BioAssay AID1347076 (National Center for Advancing Translational Sciences (NCATS), 2019)
